Laboratory results taken from article PMC3192677.
Results are given in words; binding and its absence hold for the method and conditions named. In cells and extracts the contact can be indirect. Some binding calls cover weakened binding; strength is not graded here. Sequences can lack the tags named with a protein. Values belong to the binder of their own block, whether it stands above or below them.

How the values were obtained:
[1] = biological target: T1, Flag-tagged full length mouse IRS4 (insulin receptor substrate 4) (mouse) (UniProt Q9Z0Y7); experiment: co-IP; HEK293 cells co-transfected with Myc-Asb-4 and Flag-IRS4; lysis buffer 150 mM NaCl, 20 mM Na2HPO4, pH 7.4, 1% Triton X-100; precipitated with anti-Flag-M2 or anti-Myc antibody conjugated agarose, blotted with anti-Myc or anti-Flag
T1 sequence: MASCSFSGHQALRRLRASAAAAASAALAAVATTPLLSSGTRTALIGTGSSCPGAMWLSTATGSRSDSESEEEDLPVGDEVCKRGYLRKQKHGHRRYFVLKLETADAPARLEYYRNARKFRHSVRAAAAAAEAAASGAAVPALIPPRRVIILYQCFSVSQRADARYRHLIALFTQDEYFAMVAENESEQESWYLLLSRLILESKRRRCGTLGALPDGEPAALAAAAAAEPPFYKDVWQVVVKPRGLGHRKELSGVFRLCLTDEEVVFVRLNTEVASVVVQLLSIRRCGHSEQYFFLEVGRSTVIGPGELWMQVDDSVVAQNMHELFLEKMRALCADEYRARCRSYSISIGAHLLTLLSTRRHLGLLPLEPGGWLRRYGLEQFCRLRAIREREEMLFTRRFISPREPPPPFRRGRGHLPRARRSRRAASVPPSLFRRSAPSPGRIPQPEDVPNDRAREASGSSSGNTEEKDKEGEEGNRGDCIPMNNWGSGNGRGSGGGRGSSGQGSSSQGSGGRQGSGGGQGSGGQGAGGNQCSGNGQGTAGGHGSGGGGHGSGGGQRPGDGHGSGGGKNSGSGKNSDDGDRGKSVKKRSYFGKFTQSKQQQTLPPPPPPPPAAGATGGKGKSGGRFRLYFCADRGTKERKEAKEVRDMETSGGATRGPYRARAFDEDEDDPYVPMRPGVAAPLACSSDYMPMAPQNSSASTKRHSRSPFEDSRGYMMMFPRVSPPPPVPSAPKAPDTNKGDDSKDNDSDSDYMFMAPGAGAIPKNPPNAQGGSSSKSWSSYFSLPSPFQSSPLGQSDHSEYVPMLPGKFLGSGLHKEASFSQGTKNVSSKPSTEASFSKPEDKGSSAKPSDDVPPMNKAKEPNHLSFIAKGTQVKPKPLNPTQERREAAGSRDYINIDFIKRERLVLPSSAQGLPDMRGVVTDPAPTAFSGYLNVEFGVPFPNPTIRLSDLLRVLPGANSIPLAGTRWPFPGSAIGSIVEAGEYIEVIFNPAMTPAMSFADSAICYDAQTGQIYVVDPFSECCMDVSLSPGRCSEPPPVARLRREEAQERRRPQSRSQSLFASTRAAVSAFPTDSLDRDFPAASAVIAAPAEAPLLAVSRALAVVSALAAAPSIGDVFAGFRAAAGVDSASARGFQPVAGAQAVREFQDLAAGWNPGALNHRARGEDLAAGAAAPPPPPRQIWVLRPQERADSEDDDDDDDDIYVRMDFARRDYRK

[2] = biological target: T2, Myc-tagged full length mouse Asb-4 (ankyrin repeat and SOCS box containing protein 4) (mouse) (UniProt Q9WV71); experiment: as above
T2 sequence: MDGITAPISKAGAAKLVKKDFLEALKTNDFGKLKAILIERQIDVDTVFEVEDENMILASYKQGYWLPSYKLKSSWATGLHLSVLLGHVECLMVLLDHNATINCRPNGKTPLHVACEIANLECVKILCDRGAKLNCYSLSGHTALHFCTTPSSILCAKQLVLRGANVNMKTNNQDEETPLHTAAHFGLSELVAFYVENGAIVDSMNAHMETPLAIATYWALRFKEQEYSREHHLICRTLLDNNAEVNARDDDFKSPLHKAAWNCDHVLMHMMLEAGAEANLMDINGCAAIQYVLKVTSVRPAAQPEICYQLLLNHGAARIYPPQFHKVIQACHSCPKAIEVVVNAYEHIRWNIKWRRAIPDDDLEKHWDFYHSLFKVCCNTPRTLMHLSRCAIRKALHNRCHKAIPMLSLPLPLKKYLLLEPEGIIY

binding [1]: binds
B1: Myc-tagged full length mouse Asb-4 (ankyrin repeat and SOCS box containing protein 4) (protein, UniProt Q9WV71 1-426)
chain: T2 sequence

binding [2]: binds
B2: Flag-tagged full length mouse IRS4 (insulin receptor substrate 4) (protein, UniProt Q9Z0Y7 1-1216)
chain: T1 sequence
